{
  "sequences": {"note": "Protein sequences, listed by entry. Tags and fused reporters are not part of them.", "UniProt P06748": "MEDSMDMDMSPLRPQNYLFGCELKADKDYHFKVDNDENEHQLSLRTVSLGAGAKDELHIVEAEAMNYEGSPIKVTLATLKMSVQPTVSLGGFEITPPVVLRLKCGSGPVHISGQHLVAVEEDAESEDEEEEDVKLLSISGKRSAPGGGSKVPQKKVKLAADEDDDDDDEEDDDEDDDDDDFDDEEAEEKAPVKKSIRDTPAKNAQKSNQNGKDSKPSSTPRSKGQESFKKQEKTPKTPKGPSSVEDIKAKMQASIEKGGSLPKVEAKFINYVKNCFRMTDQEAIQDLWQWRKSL"},
  "source": "paper PMC10750294",
  "molecules": {"B1": {"name": "Mesencephalic astrocyte-derived neurotrophic factor (MANF) (protein, UniProt P55145 25-182)", "chain": "LRPGDCEVCISYLGRFYQDLKDRDVTFSPATIENELIKFCREARGKENRLCYYIGATDDAATKIINEVSKPLAHHIPVEKICEKLKKKDSQICELKYDKQIDLSTVDLKKLRVKELKKILDDWGETCKGCAEKSDYIRKINELMPKYAPKAASARTDL"}, "B2": {"name": "HIS-MANF (protein, UniProt P55145 25-182)", "chain": "B1 chain"}},
  "key": {"[1]": {"biological_target": "T1, Mesencephalic astrocyte-derived neurotrophic factor (MANF) (human (endogenous in villi tissue of patients)) (UniProt P55145)", "T1 sequence": "B1 chain", "assay": "co-IP; total proteins of villi tissue of URM patients in NP40 lysis buffer; magnetic beads with primary antibody (MANF or NPM1), overnight at 4 °C; western blotting"}, "[2]": {"biological_target": "Nucleophosmin 1 (NPM1) (human (endogenous in villi tissue of patients)) (UniProt P06748)", "assay": "co-IP; total proteins of villi tissue of URM patients in NP40 lysis buffer; magnetic beads with primary antibody (MANF or NPM1), overnight at 4 °C; western blotting"}, "[3]": {"biological_target": "GST-NPM1 (UniProt P06748)", "assay": "pull-down; GST-NPM1 (or GST-labeled protein) on GST beads, 4 °C 4 h; HIS-MANF added, 4 °C overnight; PBS washes; western blotting; both purified"}},
  "note": "These are yes or no findings as the source states them, for the method shown. For part of these data: Binding seen in cells or lysates may run through a third protein. Some binding calls cover weakened binding; strength is not graded here. For part of these data: Tags and fused reporters may be left off the sequences shown.",
  "data": [
    {"molecule": "Nucleophosmin 1 (NPM1) (from UniProt P06748 1-294)", "values": [
      {"measurement": "binding", "setting": "[1]", "value": "binds"}
    ]},
    {"molecule": "B1", "values": [
      {"measurement": "binding", "setting": "[2]", "value": "binds"}
    ]},
    {"molecule": "B2", "values": [
      {"measurement": "binding", "setting": "[3]", "value": "binds"}
    ]}
  ]
}
